PubChem BioAssay AID1259308 – NCATS, 2017

- Screen: 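Genes whose loss raises luciferase production in HEK293 cells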 (primary screen)
- Cell system: human HEK293 embryonic kidney cells stably expressing firefly luciferase (HEK-CMV-Luc2-Hygro)
- Reagents: single siRNA against human genes, 0.8 pmol siRNA per well
- Time to read-out: 72 h
- Detection: 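Luciferase light (ONE-Glo) measured on one replicate plate set and viability (CellTiter-Glo) on the other, scaled to a negative control siRNA, with robust z-scores and luciferase per cell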
- Direction: total luciferase, z-score: higher = more reporter protein produced
- Active means: 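An siRNA counts as active if its total luciferase robust z-score exceeds 3; genes with two or more such siRNAs out of three were retested with fresh siRNAs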
- Calls: active = raised luciferase; inactive = no rise
In all, the deposit lists about 59,000 reagents; shown is an unselected part. About 1,510 of them (2.6%) count as active. 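Calls use total luciferase alone and ignore viability, so some active siRNAs may act by altering cell number.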 Reagents against one gene are numbered here. Further read-outs or replicates are left out here. No sequences are given here.

For SSU72 (SSU72 homolog, RNA polymerase II CTD phosphatase) #1, what does the deposit list?
total luciferase, z-score: 2.37; call: inactive

For SSU72 (SSU72 homolog, RNA polymerase II CTD phosphatase) #2, what does the deposit list?
total luciferase, z-score: -0.313; call: inactive

With SSU72 (SSU72 homolog, RNA polymerase II CTD phosphatase) #3, what was measured?
total luciferase, z-score: 1.21; call: inactive

For FAM209B (family with sequence similarity 209 member B) #1, what was measured?
total luciferase, z-score: 0.401; call: inactive

What did the screen give for FAM209B (family with sequence similarity 209 member B) #2?
total luciferase, z-score: 0.527; call: inactive

For FAM209B (family with sequence similarity 209 member B) #3, how do the results read?
total luciferase, z-score: 0.62; call: inactive

Already shown: an excerpt of the list.
SSU72 (SSU72 homolog, RNA polymerase II CTD phosphatase) #1: total luciferase, z-score = 2.37; call = inactive
SSU72 (SSU72 homolog, RNA polymerase II CTD phosphatase) #2: total luciferase, z-score = -0.313; call = inactive

Additional results:
What is on record for MACROD2 (mono-ADP ribosylhydrolase 2) #1?
total luciferase, z-score: 0.831; call: inactive

What is on record for MACROD2 (mono-ADP ribosylhydrolase 2) #2?
total luciferase, z-score: 1.4; call: inactive

For MACROD2 (mono-ADP ribosylhydrolase 2) #3, what does the deposit list?
total luciferase, z-score: 1.07; call: inactive

For MT4 (metallothionein 4) #1, what does the deposit list?
total luciferase, z-score: -1.1; call: inactive

Which result is listed for MT4 (metallothionein 4) #2?
total luciferase, z-score: 0.94; call: inactive

How did the screen score MT4 (metallothionein 4) #3?
total luciferase, z-score: -0.169; call: inactive
